Results: paper PMC5688128, “Structural basis for tRNA-dependent cysteine biosynthesis” (Nature Communications, 2017)
Results are given in words; binding and its absence hold for the method and conditions named. A result given as binding can be weak or reduced; the word gives no strength.

Protein sequences, listed by entry. Tags and fused reporters are not part of them. Lines headed by an entry give the natural chain unless they say otherwise; changes in a name come on top.
UniProt Q59054: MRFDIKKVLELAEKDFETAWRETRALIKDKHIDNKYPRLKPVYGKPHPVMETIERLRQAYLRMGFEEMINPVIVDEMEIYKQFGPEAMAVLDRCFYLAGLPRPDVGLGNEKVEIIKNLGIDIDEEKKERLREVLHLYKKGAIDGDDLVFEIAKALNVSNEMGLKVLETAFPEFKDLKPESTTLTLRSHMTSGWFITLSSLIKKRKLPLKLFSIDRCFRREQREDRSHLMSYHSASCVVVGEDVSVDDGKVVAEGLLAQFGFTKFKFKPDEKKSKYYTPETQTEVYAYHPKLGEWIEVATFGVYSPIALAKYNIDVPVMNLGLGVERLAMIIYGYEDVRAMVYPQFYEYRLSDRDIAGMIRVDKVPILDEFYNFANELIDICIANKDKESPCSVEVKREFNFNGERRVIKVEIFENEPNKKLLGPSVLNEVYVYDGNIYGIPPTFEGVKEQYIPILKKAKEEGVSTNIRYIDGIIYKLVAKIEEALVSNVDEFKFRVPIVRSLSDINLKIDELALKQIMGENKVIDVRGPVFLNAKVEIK

Experiments:
Assay in all cases: SEC; 100 µM SepRS variants incubated with 400 µM SepCysE variants; Superdex 200 10/300 GL; 20 mM HEPES-NaOH pH 7.5, 300 mM NaCl, 10% glycerol; both purified
[1] = molecular target: SepRS deletion mutant of loop 3 (494–498 ALVSN) (Methanocaldococcus jannaschii) (UniProt Q59054)
[2] = molecular target: SepRS deletion mutant of loop 2 (411–414 FNGE) (Methanocaldococcus jannaschii) (UniProt Q59054)
[3] = molecular target: SepRS deletion mutant of loop 1 (376–380 ILDEF) (Methanocaldococcus jannaschii) (UniProt Q59054)

binding [1]: binds | binding [2]: binds | binding [3]: binds
B1: SepCysE (SepRS/SepCysS pathway enhancer), Methanocaldococcus jannaschii (natural protein)
chain: MRVEYSKDLIRKGISTISQLKKAKIRVEKDDKKISYKDAKPGKIDVNEFKKAIYLLIEADDFLYKKAPKHELNEEEAKEFCKLIIKCQEHLNKILANFGFEFEEKEIDEGALYIVSNKKLFKKLKNKNPNLKVVCTEGMLDIEDMRAIGVPEKALEGLKKKVEIARKNVERFIEKYKPEKIFVVVEDDKDELLYLRAKNLYNAEKLDADEILD
notes: SepCysE of Methanocaldococcus jannaschii; wild type
